In paper PMC12187329:
Results are given in words; binding and its absence hold for the method and conditions named. In cells and extracts the contact can be indirect. Some entries that bind do so weakly or less than the wild type.

Amino acid sequences for entries named in this document (tags omitted). A change or cut given only in a name is not applied to a line headed by its entry.
UniProt Q13263: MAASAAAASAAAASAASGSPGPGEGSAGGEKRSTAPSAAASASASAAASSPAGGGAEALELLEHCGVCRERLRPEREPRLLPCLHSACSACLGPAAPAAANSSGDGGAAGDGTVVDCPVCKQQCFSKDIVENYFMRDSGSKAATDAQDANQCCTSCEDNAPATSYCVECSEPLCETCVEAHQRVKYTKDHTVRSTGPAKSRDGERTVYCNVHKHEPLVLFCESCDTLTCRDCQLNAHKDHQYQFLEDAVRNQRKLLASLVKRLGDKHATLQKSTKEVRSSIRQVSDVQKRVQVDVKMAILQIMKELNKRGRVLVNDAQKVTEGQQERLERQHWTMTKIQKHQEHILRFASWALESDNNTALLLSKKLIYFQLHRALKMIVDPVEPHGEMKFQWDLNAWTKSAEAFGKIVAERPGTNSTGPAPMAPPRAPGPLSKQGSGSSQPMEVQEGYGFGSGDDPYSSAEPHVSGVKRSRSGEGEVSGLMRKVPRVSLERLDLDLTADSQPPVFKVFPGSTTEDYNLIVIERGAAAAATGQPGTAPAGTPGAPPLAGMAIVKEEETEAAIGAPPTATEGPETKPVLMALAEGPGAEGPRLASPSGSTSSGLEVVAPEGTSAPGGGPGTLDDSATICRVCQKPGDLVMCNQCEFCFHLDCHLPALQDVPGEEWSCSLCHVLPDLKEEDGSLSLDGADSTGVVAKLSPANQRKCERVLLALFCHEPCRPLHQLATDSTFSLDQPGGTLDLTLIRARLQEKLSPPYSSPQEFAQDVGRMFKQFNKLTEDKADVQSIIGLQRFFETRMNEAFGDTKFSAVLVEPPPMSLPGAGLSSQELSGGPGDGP
UniProt Q92508: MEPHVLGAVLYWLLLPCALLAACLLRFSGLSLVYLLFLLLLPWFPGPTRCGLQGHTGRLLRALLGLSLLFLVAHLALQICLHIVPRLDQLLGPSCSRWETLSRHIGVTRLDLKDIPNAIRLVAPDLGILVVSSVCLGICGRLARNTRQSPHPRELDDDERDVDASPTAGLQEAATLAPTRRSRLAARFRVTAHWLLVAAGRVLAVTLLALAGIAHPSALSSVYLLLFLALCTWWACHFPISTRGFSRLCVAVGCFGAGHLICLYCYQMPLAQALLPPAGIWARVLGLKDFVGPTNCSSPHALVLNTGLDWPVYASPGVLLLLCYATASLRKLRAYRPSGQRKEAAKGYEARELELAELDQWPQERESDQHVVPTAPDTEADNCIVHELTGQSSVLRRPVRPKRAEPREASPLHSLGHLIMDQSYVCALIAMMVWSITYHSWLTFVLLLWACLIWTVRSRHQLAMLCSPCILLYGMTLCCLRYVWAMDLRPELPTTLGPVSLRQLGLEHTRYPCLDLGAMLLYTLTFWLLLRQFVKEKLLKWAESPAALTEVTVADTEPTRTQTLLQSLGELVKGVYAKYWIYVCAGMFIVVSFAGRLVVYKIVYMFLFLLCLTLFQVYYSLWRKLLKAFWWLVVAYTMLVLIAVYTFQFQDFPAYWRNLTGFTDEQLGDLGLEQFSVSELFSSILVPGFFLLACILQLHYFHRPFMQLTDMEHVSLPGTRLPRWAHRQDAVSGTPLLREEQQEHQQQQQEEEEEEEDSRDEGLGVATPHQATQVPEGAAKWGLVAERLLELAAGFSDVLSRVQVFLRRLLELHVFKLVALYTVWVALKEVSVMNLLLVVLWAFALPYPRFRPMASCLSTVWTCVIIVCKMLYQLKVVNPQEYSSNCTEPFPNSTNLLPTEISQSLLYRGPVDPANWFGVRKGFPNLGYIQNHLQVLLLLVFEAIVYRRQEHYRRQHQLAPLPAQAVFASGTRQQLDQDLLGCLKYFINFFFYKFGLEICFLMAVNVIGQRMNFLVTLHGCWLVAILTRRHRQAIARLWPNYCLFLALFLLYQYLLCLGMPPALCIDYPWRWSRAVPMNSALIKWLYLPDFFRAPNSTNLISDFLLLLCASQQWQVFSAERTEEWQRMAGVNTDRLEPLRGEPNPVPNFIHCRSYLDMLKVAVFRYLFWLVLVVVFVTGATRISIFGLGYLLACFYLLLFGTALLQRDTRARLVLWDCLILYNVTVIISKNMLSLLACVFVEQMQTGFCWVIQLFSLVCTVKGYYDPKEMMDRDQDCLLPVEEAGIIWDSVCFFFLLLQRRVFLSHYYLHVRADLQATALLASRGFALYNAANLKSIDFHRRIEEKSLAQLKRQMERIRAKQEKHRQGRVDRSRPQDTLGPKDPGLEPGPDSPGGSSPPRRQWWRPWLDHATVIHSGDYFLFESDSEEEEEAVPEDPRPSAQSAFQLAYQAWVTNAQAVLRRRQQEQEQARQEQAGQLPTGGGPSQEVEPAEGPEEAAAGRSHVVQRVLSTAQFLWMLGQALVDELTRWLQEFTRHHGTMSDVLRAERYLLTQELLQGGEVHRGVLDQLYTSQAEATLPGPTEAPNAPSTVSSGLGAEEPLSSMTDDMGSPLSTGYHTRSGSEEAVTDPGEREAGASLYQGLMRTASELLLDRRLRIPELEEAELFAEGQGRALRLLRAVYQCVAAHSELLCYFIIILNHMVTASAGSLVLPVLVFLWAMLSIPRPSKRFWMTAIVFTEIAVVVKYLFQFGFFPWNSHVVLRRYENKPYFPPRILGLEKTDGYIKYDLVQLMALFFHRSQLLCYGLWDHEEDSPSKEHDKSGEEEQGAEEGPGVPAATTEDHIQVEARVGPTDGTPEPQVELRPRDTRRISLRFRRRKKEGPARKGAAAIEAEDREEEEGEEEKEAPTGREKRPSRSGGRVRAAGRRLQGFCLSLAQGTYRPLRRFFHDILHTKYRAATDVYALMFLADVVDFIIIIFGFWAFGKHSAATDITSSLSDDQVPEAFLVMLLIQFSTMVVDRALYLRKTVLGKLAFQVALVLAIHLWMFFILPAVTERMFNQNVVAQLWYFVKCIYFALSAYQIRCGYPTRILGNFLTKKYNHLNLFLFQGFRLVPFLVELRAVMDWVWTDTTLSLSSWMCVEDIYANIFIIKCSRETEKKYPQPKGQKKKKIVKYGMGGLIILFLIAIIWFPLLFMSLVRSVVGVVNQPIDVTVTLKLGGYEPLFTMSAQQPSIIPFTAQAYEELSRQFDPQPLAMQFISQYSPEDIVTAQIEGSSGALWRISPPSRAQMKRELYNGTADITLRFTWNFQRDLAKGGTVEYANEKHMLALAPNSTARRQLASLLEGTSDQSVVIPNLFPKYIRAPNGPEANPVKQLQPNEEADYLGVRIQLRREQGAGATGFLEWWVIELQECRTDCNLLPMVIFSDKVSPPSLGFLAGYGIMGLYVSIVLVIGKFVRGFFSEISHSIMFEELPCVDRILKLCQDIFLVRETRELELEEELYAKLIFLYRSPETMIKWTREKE
UniProt Q96AC1: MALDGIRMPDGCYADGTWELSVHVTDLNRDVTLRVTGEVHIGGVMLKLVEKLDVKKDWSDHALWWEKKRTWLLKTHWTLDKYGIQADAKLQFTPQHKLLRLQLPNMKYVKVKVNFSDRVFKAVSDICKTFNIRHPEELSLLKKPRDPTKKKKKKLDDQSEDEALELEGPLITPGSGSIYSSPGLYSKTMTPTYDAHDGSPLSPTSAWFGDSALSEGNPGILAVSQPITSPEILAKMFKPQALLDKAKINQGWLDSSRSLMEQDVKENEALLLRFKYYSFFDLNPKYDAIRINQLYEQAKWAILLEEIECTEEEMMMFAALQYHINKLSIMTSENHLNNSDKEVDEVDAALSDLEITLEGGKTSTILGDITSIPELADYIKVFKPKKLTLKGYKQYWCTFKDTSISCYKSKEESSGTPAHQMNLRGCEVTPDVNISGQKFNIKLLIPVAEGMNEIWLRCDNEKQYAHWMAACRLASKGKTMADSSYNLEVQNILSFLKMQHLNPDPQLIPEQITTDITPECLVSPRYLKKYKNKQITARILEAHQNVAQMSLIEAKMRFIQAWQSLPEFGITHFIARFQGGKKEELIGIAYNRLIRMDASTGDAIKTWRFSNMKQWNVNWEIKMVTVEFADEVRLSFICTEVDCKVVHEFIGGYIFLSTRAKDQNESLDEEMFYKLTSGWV

Legend:
[1] = target: Trim28 (in the Co-IP with Kindlin-2 truncations) (UniProt Q13263); experiment: co-IP; plasmids expressing different truncations of Kindlin-2; Co-IP (Fig. S8M); cells not given
[2] = target: Piezo1 (in the Co-IP with Kindlin-2 truncations) (UniProt Q92508); experiment: as above
[3] = target: KINDLIN-2 (human (endogenous in HUVECs)) (UniProt Q96AC1); experiment: co-IP; Co-IP of KINDLIN-2 and PIEZO1 (Fig. S8F, S8G); cells, bait and conditions not stated in the text shown
[4] = target: PIEZO1 (human (endogenous in HUVECs)) (UniProt Q92508); experiment: co-IP; cell lysates from HUVECs used for IP and IB; endogenous proteins
[5] = target: KINDLIN-2 (human (endogenous in HUVECs)) (UniProt Q96AC1); experiment: as above

## Kindlin-2 aa1-239 (from UniProt Q96AC1 1-239) (domain or fragment)
[1]
  binding: binds

## Kindlin-2 aa1-569 (from UniProt Q96AC1 1-569) (domain or fragment)
[2]
  binding: binds

## PIEZO1 (from UniProt Q92508 1-2521)
[3]
  binding: binds

## TRIM28 (from UniProt Q13263 1-835)
[4]
  binding: binds
[5]
  binding: binds
